Laboratory results: publication PMC11830007
These are yes or no findings as the source states them, for the method shown. Binding seen in cells or lysates may run through a third protein. Some results given as binding are weak or reduced against the parent protein; the word gives no strength.

Amino acid sequences for entries named in this document (tags omitted). A change or cut given only in a name is not applied to a line headed by its entry. Chains listed by the source or under a name are the forms on record and can include a tag or linker.
SGF29-C-R207P (Q96ES7, form named): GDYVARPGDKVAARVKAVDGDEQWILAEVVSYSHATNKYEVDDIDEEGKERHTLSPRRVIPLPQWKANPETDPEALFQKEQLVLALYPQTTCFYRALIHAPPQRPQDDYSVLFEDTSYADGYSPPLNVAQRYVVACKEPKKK
SGF29-C-D194A (Q96ES7, form named): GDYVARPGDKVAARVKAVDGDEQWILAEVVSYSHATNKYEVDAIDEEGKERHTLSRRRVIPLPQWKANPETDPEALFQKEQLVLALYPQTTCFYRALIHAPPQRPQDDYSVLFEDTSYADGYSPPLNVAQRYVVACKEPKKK
UniProt P08047: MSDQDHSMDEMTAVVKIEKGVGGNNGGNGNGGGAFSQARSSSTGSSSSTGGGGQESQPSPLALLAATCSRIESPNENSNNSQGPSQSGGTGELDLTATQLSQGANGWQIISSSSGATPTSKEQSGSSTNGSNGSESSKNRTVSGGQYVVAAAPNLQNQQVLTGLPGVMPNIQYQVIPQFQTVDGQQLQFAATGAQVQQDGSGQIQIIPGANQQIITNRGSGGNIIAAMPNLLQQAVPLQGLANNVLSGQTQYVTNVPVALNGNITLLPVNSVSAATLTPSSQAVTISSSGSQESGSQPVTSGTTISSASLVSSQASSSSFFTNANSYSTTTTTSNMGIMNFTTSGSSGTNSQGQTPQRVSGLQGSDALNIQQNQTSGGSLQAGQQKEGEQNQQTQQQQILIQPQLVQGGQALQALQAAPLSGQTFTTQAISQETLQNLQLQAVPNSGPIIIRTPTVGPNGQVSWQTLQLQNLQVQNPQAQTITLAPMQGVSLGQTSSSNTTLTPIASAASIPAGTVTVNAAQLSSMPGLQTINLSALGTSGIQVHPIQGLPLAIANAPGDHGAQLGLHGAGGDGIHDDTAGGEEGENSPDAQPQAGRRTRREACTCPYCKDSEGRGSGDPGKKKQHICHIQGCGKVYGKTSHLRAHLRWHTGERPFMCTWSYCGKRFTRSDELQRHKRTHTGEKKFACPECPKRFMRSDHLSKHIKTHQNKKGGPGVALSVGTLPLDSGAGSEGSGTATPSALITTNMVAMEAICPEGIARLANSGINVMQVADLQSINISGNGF

B1: MED4 (protein, UniProt Q9NPJ6 1-270)
chain: MAASSSGEKEKERLGGGLGVAGGNSTRERLLSALEDLEVLSRELIEMLAISRNQKLLQAGEENQVLELLIHRDGEFQELMKLALNQGKIHHEMQVLEKEVEKRDSDIQQLQKQLKEAEQILATAVYQAKEKLKSIEKARKGAISSEEIIKYAHRISASNAVCAPLTWVPGDPRRPYPTDLEMRSGLLGQMNNPSTNGVNGHLPGDALAAGRLPDVLAPQYPWQSNDMSMNMLPPNHSSDFLLEPPGHNKENEDDVEIMSTDSSSSSSESD

Assays:
SGF29-C-R207P = SGF29-C-R207P (UniProt Q96ES7); assay: co-sedimentation; pelleting assay with purified recombinant SGF29-C-D194A or SGF29-C-R207P
SGF29-C-D194A = SGF29-C-D194A (UniProt Q96ES7); assay: as above

Molecule	binding (SGF29-C-R207P)	binding (SGF29-C-D194A)
SP1 (from UniProt P08047 1-785)	binds	binds
B1	binds	binds
